According to the supplement of paper PMC10849652:
This is one part of the list. Residues, ends and D or L forms follow the SMILES beside them. *: point of attachment. Cbz = O=C(OCc1ccccc1)*

Sequences of proteins named here, by UniProt entry; tags and fusion partners are left off. A change or cut given only in a name is not applied to a line headed by its entry.
UniProt Q15084: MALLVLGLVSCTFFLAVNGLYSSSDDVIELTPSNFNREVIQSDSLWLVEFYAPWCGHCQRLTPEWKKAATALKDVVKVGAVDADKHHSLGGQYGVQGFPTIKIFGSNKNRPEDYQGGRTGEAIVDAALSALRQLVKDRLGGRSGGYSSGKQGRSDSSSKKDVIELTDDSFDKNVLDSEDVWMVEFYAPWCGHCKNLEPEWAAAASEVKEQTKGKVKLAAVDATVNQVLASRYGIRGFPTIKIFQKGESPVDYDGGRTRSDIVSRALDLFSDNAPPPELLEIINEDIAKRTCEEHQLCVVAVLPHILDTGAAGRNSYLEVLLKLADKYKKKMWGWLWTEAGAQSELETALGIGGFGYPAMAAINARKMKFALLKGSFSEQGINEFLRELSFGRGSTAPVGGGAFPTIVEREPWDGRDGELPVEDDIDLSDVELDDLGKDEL
UniProt O43252: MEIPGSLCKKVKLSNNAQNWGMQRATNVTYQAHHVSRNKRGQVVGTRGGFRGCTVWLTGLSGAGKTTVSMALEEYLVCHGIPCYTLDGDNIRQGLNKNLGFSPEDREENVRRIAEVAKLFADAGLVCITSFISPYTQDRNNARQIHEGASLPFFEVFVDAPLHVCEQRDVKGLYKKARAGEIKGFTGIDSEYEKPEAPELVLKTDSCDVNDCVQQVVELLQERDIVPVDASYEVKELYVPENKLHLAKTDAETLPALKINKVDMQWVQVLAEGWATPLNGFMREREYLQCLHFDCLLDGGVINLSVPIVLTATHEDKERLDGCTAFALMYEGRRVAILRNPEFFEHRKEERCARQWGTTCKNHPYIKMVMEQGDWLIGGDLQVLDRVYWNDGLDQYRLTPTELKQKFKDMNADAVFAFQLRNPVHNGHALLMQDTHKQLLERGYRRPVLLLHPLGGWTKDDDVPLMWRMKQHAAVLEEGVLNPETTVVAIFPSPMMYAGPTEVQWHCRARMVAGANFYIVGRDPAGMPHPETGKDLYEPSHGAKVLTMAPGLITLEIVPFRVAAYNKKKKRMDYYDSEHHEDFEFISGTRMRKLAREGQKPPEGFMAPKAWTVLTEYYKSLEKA
UniProt P22234: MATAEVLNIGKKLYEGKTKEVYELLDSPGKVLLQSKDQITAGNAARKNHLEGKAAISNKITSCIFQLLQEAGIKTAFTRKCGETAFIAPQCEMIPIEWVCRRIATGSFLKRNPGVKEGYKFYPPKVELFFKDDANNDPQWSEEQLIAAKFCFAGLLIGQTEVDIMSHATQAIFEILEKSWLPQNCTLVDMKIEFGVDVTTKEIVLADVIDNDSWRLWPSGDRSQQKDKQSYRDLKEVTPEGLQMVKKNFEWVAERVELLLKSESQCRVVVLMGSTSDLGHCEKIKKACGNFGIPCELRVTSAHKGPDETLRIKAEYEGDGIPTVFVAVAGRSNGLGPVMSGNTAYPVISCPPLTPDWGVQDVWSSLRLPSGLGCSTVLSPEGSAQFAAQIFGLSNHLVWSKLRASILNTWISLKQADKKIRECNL
UniProt Q5T2R2: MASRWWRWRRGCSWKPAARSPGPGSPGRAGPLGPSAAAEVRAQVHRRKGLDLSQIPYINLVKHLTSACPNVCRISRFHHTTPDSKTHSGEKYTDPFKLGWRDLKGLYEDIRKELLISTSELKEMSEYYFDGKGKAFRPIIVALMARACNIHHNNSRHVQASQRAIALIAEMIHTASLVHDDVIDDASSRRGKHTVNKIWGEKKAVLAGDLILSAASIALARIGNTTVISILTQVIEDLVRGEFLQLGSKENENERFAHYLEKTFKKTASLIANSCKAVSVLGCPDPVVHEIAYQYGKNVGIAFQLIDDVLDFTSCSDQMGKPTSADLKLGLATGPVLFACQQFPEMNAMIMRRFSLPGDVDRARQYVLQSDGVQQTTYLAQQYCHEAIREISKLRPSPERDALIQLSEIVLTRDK
UniProt Q96HC4: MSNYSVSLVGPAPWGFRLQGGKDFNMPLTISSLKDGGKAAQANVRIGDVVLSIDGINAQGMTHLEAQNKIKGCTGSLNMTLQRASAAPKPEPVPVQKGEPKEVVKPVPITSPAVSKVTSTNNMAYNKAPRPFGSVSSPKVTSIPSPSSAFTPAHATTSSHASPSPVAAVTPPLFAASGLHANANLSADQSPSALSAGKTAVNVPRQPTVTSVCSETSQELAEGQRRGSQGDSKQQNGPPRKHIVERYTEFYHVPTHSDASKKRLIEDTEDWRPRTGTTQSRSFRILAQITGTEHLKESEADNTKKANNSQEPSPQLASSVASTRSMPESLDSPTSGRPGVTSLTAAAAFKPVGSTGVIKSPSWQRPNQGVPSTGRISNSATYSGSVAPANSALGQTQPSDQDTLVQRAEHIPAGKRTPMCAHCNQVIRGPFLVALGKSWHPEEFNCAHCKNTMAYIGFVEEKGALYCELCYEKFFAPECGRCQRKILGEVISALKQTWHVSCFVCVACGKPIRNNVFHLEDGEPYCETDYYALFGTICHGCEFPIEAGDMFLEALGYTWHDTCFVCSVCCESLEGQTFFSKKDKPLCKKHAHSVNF
UniProt Q9BPZ3: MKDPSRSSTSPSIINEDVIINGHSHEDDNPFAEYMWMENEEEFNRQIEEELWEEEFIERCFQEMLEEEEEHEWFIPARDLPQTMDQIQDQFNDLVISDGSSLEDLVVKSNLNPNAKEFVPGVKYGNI
UniProt Q9NWT1: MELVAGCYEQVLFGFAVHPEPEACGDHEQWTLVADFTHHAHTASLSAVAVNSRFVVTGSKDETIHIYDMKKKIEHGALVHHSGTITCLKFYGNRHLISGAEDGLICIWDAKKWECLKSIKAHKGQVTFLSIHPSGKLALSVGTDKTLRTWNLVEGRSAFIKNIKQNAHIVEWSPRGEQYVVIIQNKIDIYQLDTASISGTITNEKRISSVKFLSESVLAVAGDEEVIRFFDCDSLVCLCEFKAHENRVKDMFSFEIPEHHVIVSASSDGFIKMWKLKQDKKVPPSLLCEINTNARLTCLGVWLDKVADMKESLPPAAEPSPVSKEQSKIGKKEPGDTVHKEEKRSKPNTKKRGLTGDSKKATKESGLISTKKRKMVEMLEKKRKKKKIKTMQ
UniProt Q6ZW49, whole entry, looked up: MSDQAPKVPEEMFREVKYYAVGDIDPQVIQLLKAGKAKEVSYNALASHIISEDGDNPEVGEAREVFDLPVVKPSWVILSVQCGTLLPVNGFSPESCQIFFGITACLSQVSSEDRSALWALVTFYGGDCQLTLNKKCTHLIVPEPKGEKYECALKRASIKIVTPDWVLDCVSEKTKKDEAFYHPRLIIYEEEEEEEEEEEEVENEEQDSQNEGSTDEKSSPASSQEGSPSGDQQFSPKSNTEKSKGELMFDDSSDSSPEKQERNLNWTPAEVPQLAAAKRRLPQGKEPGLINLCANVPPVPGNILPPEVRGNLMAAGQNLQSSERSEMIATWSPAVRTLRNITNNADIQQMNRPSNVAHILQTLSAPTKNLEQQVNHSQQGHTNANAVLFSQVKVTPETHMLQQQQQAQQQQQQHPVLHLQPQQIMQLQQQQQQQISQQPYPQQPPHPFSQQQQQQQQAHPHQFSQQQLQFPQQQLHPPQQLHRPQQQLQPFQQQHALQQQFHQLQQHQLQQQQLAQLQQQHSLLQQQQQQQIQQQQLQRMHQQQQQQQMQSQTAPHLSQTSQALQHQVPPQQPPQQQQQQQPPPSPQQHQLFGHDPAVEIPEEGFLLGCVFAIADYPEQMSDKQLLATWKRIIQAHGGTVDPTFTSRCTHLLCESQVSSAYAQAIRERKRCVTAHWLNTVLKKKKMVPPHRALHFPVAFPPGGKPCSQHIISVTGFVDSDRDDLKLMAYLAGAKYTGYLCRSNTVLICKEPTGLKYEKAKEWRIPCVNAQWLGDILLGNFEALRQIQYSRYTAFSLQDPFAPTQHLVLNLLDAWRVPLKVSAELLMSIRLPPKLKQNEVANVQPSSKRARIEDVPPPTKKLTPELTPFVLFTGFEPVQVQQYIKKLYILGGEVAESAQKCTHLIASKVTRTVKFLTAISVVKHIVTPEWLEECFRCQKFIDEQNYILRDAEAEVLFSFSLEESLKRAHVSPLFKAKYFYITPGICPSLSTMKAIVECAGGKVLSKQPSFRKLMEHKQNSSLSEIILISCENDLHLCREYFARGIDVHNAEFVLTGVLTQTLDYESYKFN
UniProt Q9NP74: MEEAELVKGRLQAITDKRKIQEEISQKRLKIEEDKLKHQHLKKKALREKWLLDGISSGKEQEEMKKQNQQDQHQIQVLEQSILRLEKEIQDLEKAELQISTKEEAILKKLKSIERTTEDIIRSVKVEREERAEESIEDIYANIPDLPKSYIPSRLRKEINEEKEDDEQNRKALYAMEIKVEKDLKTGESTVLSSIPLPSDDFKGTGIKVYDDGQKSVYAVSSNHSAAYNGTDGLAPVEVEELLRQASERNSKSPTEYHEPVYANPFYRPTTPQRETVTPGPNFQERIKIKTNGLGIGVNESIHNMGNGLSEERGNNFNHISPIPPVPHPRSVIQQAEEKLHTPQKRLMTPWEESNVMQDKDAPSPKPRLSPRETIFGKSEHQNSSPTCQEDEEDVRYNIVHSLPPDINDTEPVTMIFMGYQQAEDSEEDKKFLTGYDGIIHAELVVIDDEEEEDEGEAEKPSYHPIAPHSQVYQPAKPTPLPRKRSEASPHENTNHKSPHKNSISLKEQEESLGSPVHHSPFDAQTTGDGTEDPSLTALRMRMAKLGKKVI
UniProt Q9BTK6, whole entry, looked up: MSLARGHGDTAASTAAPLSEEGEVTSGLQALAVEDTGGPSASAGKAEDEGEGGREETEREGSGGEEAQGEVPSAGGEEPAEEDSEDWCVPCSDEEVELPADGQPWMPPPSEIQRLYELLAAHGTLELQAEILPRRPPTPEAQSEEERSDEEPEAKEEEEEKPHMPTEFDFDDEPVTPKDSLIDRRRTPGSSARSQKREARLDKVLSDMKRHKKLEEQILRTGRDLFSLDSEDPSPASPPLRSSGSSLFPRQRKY
UniProt Q99497, whole entry, looked up: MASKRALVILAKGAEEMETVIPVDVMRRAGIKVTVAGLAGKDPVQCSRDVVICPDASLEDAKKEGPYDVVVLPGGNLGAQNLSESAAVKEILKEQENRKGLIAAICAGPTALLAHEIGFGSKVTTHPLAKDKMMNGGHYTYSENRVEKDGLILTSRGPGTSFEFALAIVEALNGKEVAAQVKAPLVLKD
UniProt P30086: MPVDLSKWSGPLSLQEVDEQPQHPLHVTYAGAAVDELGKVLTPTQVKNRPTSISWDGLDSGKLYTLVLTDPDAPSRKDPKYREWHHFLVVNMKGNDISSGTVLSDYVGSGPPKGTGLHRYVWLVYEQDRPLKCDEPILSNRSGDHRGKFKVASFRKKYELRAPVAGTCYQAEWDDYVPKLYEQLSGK
UniProt Q96AQ6: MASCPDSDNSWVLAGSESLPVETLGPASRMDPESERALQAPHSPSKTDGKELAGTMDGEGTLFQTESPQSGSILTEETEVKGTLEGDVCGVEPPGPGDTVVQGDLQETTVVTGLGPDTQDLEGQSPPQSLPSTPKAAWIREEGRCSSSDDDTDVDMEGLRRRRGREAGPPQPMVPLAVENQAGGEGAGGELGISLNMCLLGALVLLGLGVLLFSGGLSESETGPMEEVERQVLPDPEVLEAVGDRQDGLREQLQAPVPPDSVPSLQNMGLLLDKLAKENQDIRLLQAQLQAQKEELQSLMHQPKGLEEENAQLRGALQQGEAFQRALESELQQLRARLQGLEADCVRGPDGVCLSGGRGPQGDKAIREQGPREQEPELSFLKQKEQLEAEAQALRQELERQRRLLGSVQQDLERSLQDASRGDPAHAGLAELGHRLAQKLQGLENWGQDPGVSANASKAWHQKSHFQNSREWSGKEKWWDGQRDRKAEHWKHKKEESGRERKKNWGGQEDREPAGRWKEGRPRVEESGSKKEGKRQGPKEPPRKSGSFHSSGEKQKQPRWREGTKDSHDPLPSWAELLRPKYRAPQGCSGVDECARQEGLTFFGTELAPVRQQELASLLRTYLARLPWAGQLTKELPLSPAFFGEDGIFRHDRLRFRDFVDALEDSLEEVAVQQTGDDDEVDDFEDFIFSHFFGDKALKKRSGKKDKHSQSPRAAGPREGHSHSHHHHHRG
UniProt P61457: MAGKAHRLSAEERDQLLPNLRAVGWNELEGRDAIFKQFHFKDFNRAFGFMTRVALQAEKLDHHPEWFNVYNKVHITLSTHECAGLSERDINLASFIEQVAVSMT

Tests used:
Assay in all cases: log2 fold change, soluble protein after heating vs DMSO (PISA); higher = thermal stabilisation; K562 cells, 10 uM, 30 min; active = over 0.2 and 3.5 SD of the protein, either way, in both replicates (recomputed)
IRAK-1-4 Inhibitor I = compound: C1COCCN1CCN2C3=CC=CC=C3N=C2NC(=O)C4=CC(=CC=C4)[N+](=O)[O-] [IRAK-1-4 Inhibitor I]
In short: (§1)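 K562 cells (2×10^6 cells/mL) were treated with 10 μM compound for 30 min, and aliquots were heated for 3 min over 48°C-58°C. Pooled aliquots were extracted in PBS with 0.5% NP-40 at 4°C, and the supernatant after 21,000xg for 90 min was measured by TMTpro 16plex LC-MS/MS with channel sums equalised. Reported thermal stability, relative to control samples and from duplicates, is a log2 fold change.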

ibrutinib = compound: C=CC(=O)N1CCC[C@@H](n2nc(-c3ccc(Oc4ccccc4)cc3)c3c(N)ncnc32)C1 [ibrutinib]
In short: as §1

[1] = compound: CC(=O)c1cnc2ccc(-c3cc(Cl)c(O)c(Cl)c3)nc2c1N[C@H]1CC[C@H](CN(C)C)CC1
In short: as §1

ralimetinib = compound: CC(C)(C)Cn1c(N)nc2ccc(-c3[nH]c(C(C)(C)C)nc3-c3ccc(F)cc3)nc21 [ralimetinib]
In short: as §1

[2] = compound: CC(C)(O)CC(=O)NCCn1ccc2ncnc(Nc3ccc(Oc4cccc(C(F)(F)F)c4)c(Cl)c3)c21
In short: as §1

[3] = compound: CC(C)C1=C2N=C(C=C(N2N=C1)NCC3=CC=CC=C3)NCCCCCCN
In short: as §1

[4] = compound: CC(C)C[C@@H](C=O)NC(=O)[C@H](CC(C)C)NC(=O)[C@H](CC(C)C)NC(=O)OCc1ccccc1
In short: as §1

pinometostat = compound: CC(C)N(C[C@H]1O[C@@H](n2cnc3c(N)ncnc32)[C@H](O)[C@@H]1O)[C@H]1C[C@@H](CCc2nc3cc(C(C)(C)C)ccc3[nH]2)C1 [pinometostat]
In short: as §1

[5] = compound: CC1=C(C(CC(=O)N1)C2=CC=C(C=C2)C(F)(F)F)C(=O)NC3=C(C=C4C(=C3)C=NN4)F
In short: as §1

[6] = compound: CC1=C(C2=C(C=C1)C(=O)C3=CC=CC=C3N2CCCN)C
In short: as §1

[7] = compound: CC1=C(C=C(C=C1)NC(=O)C2=CC(=CC=C2)C(C)(C)C#N)NC3=CC4=C(C=C3)N=CN(C4=O)C
In short: as §1

[8] = compound: CC1=C(C=C(C=C1)NC(=O)C2=CC(=CC=C2)N(C)C)NC(=O)C3=CC=C(C=C3)O
In short: as §1

[9] = compound: CC1=CC=C(C=C1)SC2=C3C=C(SC3=CN=C2)C(=O)N
In short: as §1

[10] = compound: CC1=NC(=CC=C1)C2=C(N=C(N2)C(C)(C)C)C3=CC4=NC=CN=C4C=C3
In short: as §1

Nexturastat A = compound: CCCCN(Cc1ccc(C(=O)NO)cc1)C(=O)Nc1ccccc1 [Nexturastat A]
In short: as §1

vemurafenib = compound: CCCS(=O)(=O)Nc1ccc(F)c(C(=O)c2c[nH]c3ncc(-c4ccc(Cl)cc4)cc23)c1F [vemurafenib]
In short: as §1

[11] = compound: CCCS(=O)(=O)Nc1ccc(F)c(C(=O)c2c[nH]c3ncc(Cl)cc23)c1F
In short: as §1

[12] = compound: CCCc1cc(C)[nH]c(=O)c1CNC(=O)c1cc(-c2ccnc(N3CCN(C)CC3)c2)cc2c1cnn2C(C)C
In short: as §1

givinostat = compound: CCN(CC)Cc1ccc2cc(COC(=O)Nc3ccc(C(=O)NO)cc3)ccc2c1 [givinostat]
In short: as §1

barasertib = compound: CCN(CCCOc1ccc2c(Nc3cc(CC(=O)Nc4cccc(F)c4)[nH]n3)ncnc2c1)CCOP(=O)(O)O [barasertib]
In short: as §1

Measured: log2 fold change

PCCA (UniProt P05165)
inactive: IRAK-1-4 Inhibitor I 0.144 | ibrutinib -0.028 | [1] -0.075 | ralimetinib -0.025 | [2] -0.079 | [3] -0.036 | [4] 0.076 | pinometostat 0.047 | [5] -0.04 | [6] 0.048 | [7] -0.02 | [8] 0.015 | [9] -0.025 | [10] -0.018 | Nexturastat A 0.059 | vemurafenib 0.01 | [11] -0.015 | [12] -0.057 | givinostat 0.016 | barasertib -0.05

PDIA6 isoform 2 (UniProt Q15084)
inactive: IRAK-1-4 Inhibitor I 0.002 | ibrutinib -0.024 | [1] 0.023 | ralimetinib -0.001 | [2] 0.045 | [3] 0.001 | [4] 0.013 | pinometostat -0.023 | [5] 0.028 | [6] -0.042 | [7] -0.031 | [8] -0.01 | [9] -0.013 | [10] 0.014 | Nexturastat A -0.016 | vemurafenib -0.03 | [11] -0.079 | [12] -0.002 | givinostat -0.044 | barasertib 0.041

PAPSS1 (UniProt O43252)
inactive: IRAK-1-4 Inhibitor I 0.081 | ibrutinib -0.022 | [1] 0.009 | ralimetinib -0.058 | [2] -0.03 | [3] 0.021 | [4] 0.082 | pinometostat -0.012 | [5] 0.004 | [6] -0.006 | [7] -0.023 | [8] 0.015 | [9] -0.033 | [10] 0.011 | Nexturastat A -0.002 | vemurafenib 0.006 | [11] -0.007 | [12] -0.029 | givinostat 0.022 | barasertib 0.018

PAK2 (UniProt Q13177)
inactive: IRAK-1-4 Inhibitor I 0.027 | ibrutinib 0.021 | [1] -0.009 | ralimetinib -0.046 | [2] 0.016 | [3] 0.056 | [4] -0.013 | pinometostat -0.039 | [5] -0.023 | [6] -0.01 | [7] 0.006 | [8] -0.001 | [9] -0.005 | [10] 0.04 | Nexturastat A -0.09 | vemurafenib 0.013 | [11] 0.029 | [12] -0.047 | givinostat 0.002 | barasertib -0.008

PAICS (UniProt P22234)
inactive: IRAK-1-4 Inhibitor I 0.043 | ibrutinib 0.002 | [1] 0.019 | ralimetinib -0.001 | [2] -0.008 | [3] 0.073 | [4] 0.005 | pinometostat -0.034 | [5] 0.037 | [6] 0.009 | [7] 0.01 | [8] 0.012 | [9] -0.036 | [10] 0.007 | Nexturastat A -0.066 | vemurafenib -0.038 | [11] -0.073 | [12] -0.001 | givinostat -0.041 | barasertib 0.02

PDSS1 (UniProt Q5T2R2)
inactive: IRAK-1-4 Inhibitor I 0.017 | ibrutinib -0.001 | [1] -0.152 | ralimetinib -0.077 | [2] -0.138 | [3] -0.002 | [4] -0.041 | pinometostat -0.01 | [5] -0.03 | [6] 0.008 | [7] -0.076 | [8] -0.007 | [9] -0.065 | [10] 0 | Nexturastat A -0.18 | vemurafenib 0.01 | [11] 0.029 | [12] -0.011 | givinostat -0.073 | barasertib 0.05

PDLIM5 (UniProt Q96HC4)
inactive: IRAK-1-4 Inhibitor I 0.049 | ibrutinib -0.005 | [1] -0.055 | ralimetinib -0.036 | [2] -0.042 | [3] 0.054 | [4] 0.006 | pinometostat 0.003 | [5] 0.028 | [6] 0.012 | [7] 0.011 | [8] -0.054 | [9] 0.014 | [10] 0.065 | Nexturastat A -0.04 | vemurafenib 0.018 | [11] -0.003 | [12] -0.043 | givinostat 0.001 | barasertib -0.008

Reprinted from above (3 entries):
PDIA6 isoform 2 (UniProt Q15084)
inactive: IRAK-1-4 Inhibitor I 0.002 | ibrutinib -0.024 | [1] 0.023 | ralimetinib -0.001 | [2] 0.045 | [3] 0.001 | [4] 0.013 | pinometostat -0.023 | [5] 0.028 | [6] -0.042 | [7] -0.031 | [8] -0.01 | [9] -0.013 | [10] 0.014 | Nexturastat A -0.016 | vemurafenib -0.03 | [11] -0.079 | [12] -0.002 | givinostat -0.044 | barasertib 0.041

PAPSS1 (UniProt O43252)
inactive: IRAK-1-4 Inhibitor I 0.081 | ibrutinib -0.022 | [1] 0.009 | ralimetinib -0.058 | [2] -0.03 | [3] 0.021 | [4] 0.082 | pinometostat -0.012 | [5] 0.004 | [6] -0.006 | [7] -0.023 | [8] 0.015 | [9] -0.033 | [10] 0.011 | Nexturastat A -0.002 | vemurafenib 0.006 | [11] -0.007 | [12] -0.029 | givinostat 0.022 | barasertib 0.018

PAK2 (UniProt Q13177)
inactive: IRAK-1-4 Inhibitor I 0.027 | ibrutinib 0.021 | [1] -0.009 | ralimetinib -0.046 | [2] 0.016 | [3] 0.056 | [4] -0.013 | pinometostat -0.039 | [5] -0.023 | [6] -0.01 | [7] 0.006 | [8] -0.001 | [9] -0.005 | [10] 0.04 | Nexturastat A -0.09 | vemurafenib 0.013 | [11] 0.029 | [12] -0.047 | givinostat 0.002 | barasertib -0.008

Remaining list, next part.

PAIP2 (UniProt Q9BPZ3)
inactive: IRAK-1-4 Inhibitor I -0.072 | ibrutinib 0.012 | [1] 0.026 | ralimetinib 0.051 | [2] -0.043 | [3] -0.012 | [4] 0.128 | pinometostat 0.135 | [5] -0.049 | [6] 0.082 | [7] -0.008 | [8] 0.04 | [9] 0.019 | [10] -0.059 | Nexturastat A 0.178 | vemurafenib 0.105 | [11] -0.003 | [12] -0.063 | givinostat -0.01 | barasertib 0.064

PAK1IP1 (UniProt Q9NWT1)
inactive: IRAK-1-4 Inhibitor I -0.141 | ibrutinib -0.001 | [1] 0.18 | ralimetinib 0.182 | [2] 0.118 | [3] 0.104 | [4] 0.037 | pinometostat 0.445 | [5] 0.062 | [6] -0.296 | [7] 0.004 | [8] -0.017 | [9] -0.155 | [10] -0.095 | Nexturastat A 0.199 | vemurafenib -0.201 | [11] -0.127 | [12] 0.161 | givinostat -0.024 | barasertib -0.18

PAXIP1 (UniProt Q6ZW49)
inactive: IRAK-1-4 Inhibitor I -0.155 | ibrutinib 0.116 | [1] -0.355 | ralimetinib 0.022 | [2] 0.139 | [3] -0.07 | [4] -0.167 | pinometostat 0.118 | [5] -0.091 | [6] 0.02 | [7] -0.157 | [8] 0.06 | [9] -0.013 | [10] 0.062 | Nexturastat A 0.061 | vemurafenib 0.079 | [11] -0.038 | [12] 0.127 | givinostat 0.032 | barasertib -0.092

PALMD (UniProt Q9NP74)
inactive: IRAK-1-4 Inhibitor I 0.016 | ibrutinib -0.001 | [1] -0.017 | ralimetinib -0.044 | [2] 0.044 | [3] 0.061 | [4] 0.03 | pinometostat -0.025 | [5] 0.038 | [6] -0.045 | [7] -0.177 | [8] 0.041 | [9] -0.019 | [10] -0.014 | Nexturastat A -0.074 | vemurafenib 0.022 | [11] -0.022 | [12] 0.024 | givinostat -0.021 | barasertib -0.041

PAGR1 (UniProt Q9BTK6)
inactive: IRAK-1-4 Inhibitor I -0.057 | ibrutinib -0.067 | [1] 0.042 | ralimetinib -0.21 | [2] -0.061 | [3] 0.013 | [4] 0.272 | pinometostat -0.04 | [5] 0.014 | [6] 0.021 | [7] 0.031 | [8] 0.031 | [9] 0.019 | [10] 0.126 | Nexturastat A -0.047 | vemurafenib 0.015 | [11] -0.038 | [12] 0.033 | givinostat -0.058 | barasertib -0.045

PARK7 (UniProt Q99497)
inactive: IRAK-1-4 Inhibitor I 0.029 | ibrutinib -0.025 | [1] 0.041 | ralimetinib 0.116 | [2] 0.003 | [3] 0.047 | [4] -0.106 | pinometostat -0.064 | [5] 0.001 | [6] 0.013 | [7] 0.187 | [8] -0.002 | [9] 0.096 | [10] 0.049 | Nexturastat A -0.085 | vemurafenib 0.182 | [11] 0.085 | [12] 0.216 | givinostat -0.002 | barasertib 0.025

PEBP1 (UniProt P30086)
inactive: IRAK-1-4 Inhibitor I 0.046 | ibrutinib 0.002 | [1] 0.028 | ralimetinib -0.016 | [2] 0.015 | [3] 0.042 | [4] -0.02 | pinometostat -0.042 | [5] 0.015 | [6] -0.062 | [7] -0.007 | [8] 0.03 | [9] 0.015 | [10] 0.007 | Nexturastat A 0.006 | vemurafenib -0.012 | [11] 0.01 | [12] 0 | givinostat -0.038 | barasertib -0.011

PBXIP1 (UniProt Q96AQ6)
inactive: IRAK-1-4 Inhibitor I 0.008 | ibrutinib 0.029 | [1] 0.036 | ralimetinib -0.004 | [2] 0.021 | [3] -0.012 | [4] 0.031 | pinometostat 0.013 | [5] -0.016 | [6] 0.039 | [7] -0.003 | [8] -0.012 | [9] 0.027 | [10] -0.032 | Nexturastat A 0.018 | vemurafenib -0.046 | [11] -0.041 | [12] -0.011 | givinostat 0.011 | barasertib -0.022

PCBD1 (UniProt P61457)
inactive: IRAK-1-4 Inhibitor I 0.043 | ibrutinib 0.032 | [1] 0.02 | ralimetinib -0.036 | [2] 0.08 | [3] 0.051 | [4] -0.024 | pinometostat 0.028 | [5] 0.009 | [6] 0.085 | [7] -0.096 | [8] -0.047 | [9] -0.002 | [10] -0.011 | Nexturastat A -0.202 | vemurafenib -0.074 | [11] 0.002 | [12] -0.06 | givinostat 0.009 | barasertib 0.028
